This assay concerns the target NS5B polymerase (Hepatitis C virus genotype 1b, UniProt P26663). Nature of the assay: biochemical. How it is done: Compounds were tested for HCV polymerase inhibition. Assays were performed in a 96-well streptavidin-coated FlashPlate using 20 nM enzyme, 0.5 μCi of [α-^33P]GTP, 0.6 μM GTP, and 250 nM 5′biotinylated oligo (rG13)/poly rC in 20 mM Tris-HCl, pH 7.5, 5 mM MgCl2, 5 mM dithiothreitol, 0.1 g/L bovine serum albumin, and 100 U/mL RNAse inhibitor. The reaction was stopped by aspiration after 75 min at 28° C. and the plate was washed several times. After washing and drying the plate, incorporated radioactivity was counted using a Microbeta scintillation counter. IC50 values were calculated relative to the uninhibited control and inhibition data were fitted to a 4-parameter IC50 equation.

By UniProt entry, the sequences of proteins in these tests, tags left out. Residues count along the entry.
UniProt P26663, 2420-3010: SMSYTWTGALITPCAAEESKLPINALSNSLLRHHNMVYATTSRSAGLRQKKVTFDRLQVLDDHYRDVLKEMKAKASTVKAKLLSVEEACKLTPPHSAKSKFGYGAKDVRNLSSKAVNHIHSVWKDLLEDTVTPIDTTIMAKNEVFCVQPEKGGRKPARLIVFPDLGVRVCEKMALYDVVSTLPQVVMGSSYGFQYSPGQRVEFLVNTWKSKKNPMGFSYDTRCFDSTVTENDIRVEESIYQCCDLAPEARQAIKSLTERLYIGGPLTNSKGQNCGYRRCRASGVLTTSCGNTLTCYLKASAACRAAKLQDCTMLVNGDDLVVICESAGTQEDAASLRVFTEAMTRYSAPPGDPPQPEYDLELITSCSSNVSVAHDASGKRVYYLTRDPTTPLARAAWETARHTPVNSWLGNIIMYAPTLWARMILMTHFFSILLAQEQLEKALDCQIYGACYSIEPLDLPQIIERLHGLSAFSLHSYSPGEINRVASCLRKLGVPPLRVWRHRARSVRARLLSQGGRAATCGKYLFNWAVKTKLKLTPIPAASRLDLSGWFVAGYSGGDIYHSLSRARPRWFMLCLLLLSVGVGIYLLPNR

Our source for the IC50 values is patent US8765741B2, “5,6-dihydro-1H-pyridin-2-one compounds” (Anadys Pharmaceuticals, Inc., priority 2007, dated 2014).

pIC50: −log10 of the molar value. A value given as a limit tells only on which side of the number the result lay.

The pIC50 is −log10 of the IC50, conventionally taken in molar units. Lower therefore signals a high IC50.

On to `Cc1cc(CN2C(=O)C(C3=NS(=O)(=O)c4cc(NS(C)(=O)=O)ccc4N3)=C(O)[C@@H]3[C@H]4CC[C@H](C4)[C@@H]32)ccc1F` [Example 15, N-{3-[(1R,2S,7R,8S)-3-(4-Fluoro-3-methyl-benzyl)-6-hydroxy-4-oxo-3-aza-tricyclo[6.2.1.0^2,7]undec-5-en-5-yl]-1,1-dioxo-1,4-dihydro-1λ^6-benzo[1,2,4]thiadiazin-7-yl}-methanesulfonamide], for which the pIC50 is over 7.70.
